Library screen at single concentrations

The filed quantity is “Percent Effect” (%).
How 0% and 100% were set is not recorded. Most values in the screen are low, and negative values occur.
The compounds are a random part of those screened.
Two or more numbers in one place are separate tests of the same structure; such repeats can differ widely.

Mtb cholesterol medium: 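Whole-cell growth test on Mycobacterium tuberculosis, read after 4 days in a medium based on cholesterol and the lipid DPPC; the read-out is not stated. Concentration: 50 µM. Direction is inferred from retests: higher values go with more growth inhibition. Size under these conditions: about 69,000 compounds, about 370 of them at 50% or above in at least one test.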
Mtb glucose medium: 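Phenotypic screen: M. tuberculosis growth, glucose 7H9 medium, 3 days; the read-out is not stated. Compounds at 50 µM. Direction is inferred from retests: higher values go with more growth inhibition. About 69,000 compounds were tested under these conditions; 1.1% (about 760) showed 50% or more at least once.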

| # | Compound | Mtb cholesterol medium | Mtb glucose medium |
|---|---|---|---|
| 1 | `O=C(c1ccc(Cl)c(Cl)c1)N1CCCCC1C1OCCO1` (stereo unspecified) | 9.622 | 19.47 |
| 2 | `Cc1ccccc1CN(Cc1ccncc1)CC(C)C` | 8.242 | 5.254 |
| 3 | `Cc1ccc(CNC(=O)CC2C(=O)NCCN2Cc2ccccc2C)s1` (stereo unspecified) | -3.947 & -1.928 | 25.1 |
| 4 | `Cc1nccc(N[C@H]2CN(C(=O)CN3CCCC3=O)C[C@@H]2C(C)C)n1` | 9.697 | 3.349 |
| 5 | `Cc1ccc([C@@H]2CN(C(=O)c3cc(C)no3)C[C@H]2NC(=O)C2CC2)cc1` | -14.49 | 6.556 |
| 6 | `Cc1cc(C)n(C2CCCN(C(=O)CCNc3ncccn3)C2)n1` (stereo unspecified) | 10.8 | -6.942 |
| 7 | `COc1ccc(Cl)cc1S(=O)(=O)N(C)CC(=O)Nc1ccccc1` | -5.503 | 7.681 |
| 8 | `Cc1csc(CNC(=O)NCC(C)Cn2nc(C)cc2C)n1` (stereo unspecified) | 10.52 | 1.912 |
| 9 | `CCN(C)CC(=O)N1CCCC(c2nnc(CN3CCOCC3)n2C)C1` (stereo unspecified) | 0.9291 | -6.81 |
| 10 | `O=C(NCCCn1cccn1)C1(c2ccc(F)cc2)CC1` | 8.653 | 13.38 & 26.67 |
| 11 | `[H][C@@]12CCCN1C[C@H](CCSC)N(Cc1cnn(CCC)c1C)C2` | -19.7 | -24.12 |
| 12 | `Cc1nc(CN2CCCC(NCc3ccc(C(N)=O)cc3)C2)no1` (stereo unspecified) | 9.203 | -33.49 & -1.029 |
| 13 | `O=C(CCc1ccccc1)N[C@H]1CC[C@@]2(CCC(=O)N2)CC1` | 18.12 | 16.22 |
| 14 | `CCN1CCN(C2CCN(Cc3nnc(C(C)(C)C)o3)CC2)C1=O` | -5.783 | -6.023 |
| 15 | `CN(Cc1ccccc1)C1(C(=O)NC(C)(C)CO)Cc2ccccc2C1` | 2.451 | 24.4 & -3.094 |
| 16 | `CC(C)COC(C)C(=O)NCc1ccc(-n2cncn2)nc1` (stereo unspecified) | 15.17 | 8.342 |
| 17 | `Cc1nccc(N(C)Cc2ncc(-c3ccccc3C(=O)O)s2)n1` | 3.459 & 8.221 | -10.13 |
| 18 | `Cc1cc(N(C)Cc2ncc(-c3ccccc3C(=O)O)s2)ncn1` | -1.4 & -3.137 | -9.804 |
| 19 | `Cc1ccc(C)c(OC2CCN(C(=O)CNc3ccccc3Cl)CC2)c1` | -4.662 | 3.894 |
| 20 | `COc1cccc(-c2noc(-c3ccc(NCC(C)O)nc3)n2)c1OC` (stereo unspecified) | 37.88 & 39.02 | 63.19 |
| 21 | `Cc1nc(C2CN(C)CCO2)cc(N2CCSCC2)n1` (stereo unspecified) | 15.16 | -19.97 |
| 22 | `CN1C(=O)C(c2ccccc2)CC12CCN(CCN)CC2` (stereo unspecified) | 4.631 | 8.19 |
| 23 | `O=C(c1cccs1)N1CCN(Cc2cc(=O)c3ccccc3[nH]2)CC1` | -4.126 | 8.947 |
| 24 | `CCOCC1CN(S(=O)(=O)Cc2ccccc2)Cc2nccn2C1` (stereo unspecified) | -8.491 | -4.086 |
| 25 | `O=C(O)C(F)(F)F.O=C(O)C(F)(F)F.[H][C@]12CCN(C(=O)c3ccc4ncccc4c3)C[C@@]1([H])OCCN(C)C2` | -29.46 | -16.34 |
| 26 | `O=C(O)C(F)(F)F.[H][C@@]12C[C@H](C(=O)N3CCCCO3)CN(Cc3ccccn3)[C@]1([H])CCO2` | -14.73 & 27.23 | 12.01 |
| 27 | `Cn1cc(C(=O)O)c(-c2ccc(F)cc2F)n1` | -0.9079 & -8.781 | -1.036 |
| 28 | `Cc1ccsc1[C@@H]1CCN(C(=O)CCOc2ccccc2)C[C@H]1O` | -9.043 | -11.29 & 56.84 |
| 29 | `CC(=O)N1CCCCCC1C1CCN(Cc2nc(C(C)C)no2)CC1.Cl` (stereo unspecified) | -10.48 | -8.943 |
| 30 | `O=C(O)C(F)(F)F.[H][C@@]12CCN(Cc3c(C)noc3C)C[C@]1(C(=O)N1CCCC1)CCO2` | -18.1 | -11.18 |
| 31 | `[H][C@]12CC[C@]([H])(CN(Cc3ccccn3)C1)N(C(=O)c1cc(C(C)C)on1)C2` | -10.45 | 16.9 |
| 32 | `N#Cc1cccc(OC23CCCN(CC2)C3)c1` (stereo unspecified) | -15.56 | -2.537 & -34.25 |
| 33 | `CCNCCc1nc2cc(F)ccc2[nH]1.Cl` | 17.11 | 18.06 |
| 34 | `CSCCCNC(=O)C(c1ccccc1C)N(C)C` (stereo unspecified) | -10.96 | 7.641 & -2.038 |
| 35 | `CCc1nc(CN2CCCN(C(=O)C3CCOC3)CC2)cs1` (stereo unspecified) | -15.49 | -37.93 |
| 36 | `Cc1cnc(N2CCOCC3(CCN(c4ccccn4)C3)C2)nc1.O=C(O)C(F)(F)F.O=C(O)C(F)(F)F` (stereo unspecified) | -15.55 | 7.678 |
| 37 | `O=C1C(NS(=O)(=O)c2ccc(F)c(F)c2)CCN1Cc1ccccc1` (stereo unspecified) | -4.668 | 5.547 |
| 38 | `CN1CCCc2cc(-c3cncn3CCNC3CCS(=O)(=O)C3)ccc21.Cl` (stereo unspecified) | 5.49 | 10.76 |
| 39 | `O=C(NCc1ccccc1Cn1cncn1)C1CC1` | -24.76 | 13.3 |
| 40 | `N#Cc1ccccc1OCCN1CCCCC1Cn1cncn1` (stereo unspecified) | 8.496 | 24.37 |
| 41 | `NC(=O)C1(c2cnccn2)CCCN1Cc1ccc(Cl)c(F)c1` (stereo unspecified) | 11.02 | 10.07 |
| 42 | `[H][C@@]12C[C@H](C)O[C@]1([H])CCN(C(=O)C1=CCCC1)C2` | 15.17 | 1.907 |
| 43 | `Cc1nc(C(C)N(C)Cc2nc(CCC(C)C)no2)c(C)s1` (stereo unspecified) | -9.326 | -12.88 |
| 44 | `CCS(=O)(=O)CCN1CCCC1c1noc(C2CC2)n1` (stereo unspecified) | -33.08 | -52.73 |
| 45 | `CCC(=O)N1CCC(NC(=O)c2cccc(-n3ccnc3)c2)C1` (stereo unspecified) | 6.531 | -4.464 |
| 46 | `Cc1cc(CNCC2(O)CCOCC2)ccc1Br` | 20.71 | 1.77 & 6.439 |

Once more, the final 5:

| Compound | Mtb cholesterol medium | Mtb glucose medium |
|---|---|---|
| `[H][C@@]12C[C@H](C)O[C@]1([H])CCN(C(=O)C1=CCCC1)C2` | 15.17 | 1.907 |
| `Cc1nc(C(C)N(C)Cc2nc(CCC(C)C)no2)c(C)s1` (stereo unspecified) | -9.326 | -12.88 |
| `CCS(=O)(=O)CCN1CCCC1c1noc(C2CC2)n1` (stereo unspecified) | -33.08 | -52.73 |
| `CCC(=O)N1CCC(NC(=O)c2cccc(-n3ccnc3)c2)C1` (stereo unspecified) | 6.531 | -4.464 |
| `Cc1cc(CNCC2(O)CCOCC2)ccc1Br` | 20.71 | 1.77 & 6.439 |

Data taken from ChEMBL document CHEMBL3988442, “University of Dundee, Small-Polar-MMV Screening Library” (2021).